Key:
MCF7 [1] = test: Inhibition of serum-induced proliferation of human adriamycin-resistant MCF7 cells; format: functional, cell-based
MCF7 [2] = test: Inhibition of serum-induced proliferation of human MCF7 cells; format: functional, cell-based

`COc1cccc2c1C(=O)c1c(O)c3c(c(O)c1C2=O)C[C@@](O)(C(=O)CO)C[C@@H]3O[C@H]1C[C@H](N)[C@H](O)[C@H](C)O1` [DOXORUBICIN] gave an IC50 (MCF7 [1]) of 17 µM and an IC50 (MCF7 [2]) of 0.0071 µM.

Reference: ChEMBL document CHEMBL1143746, “Synthesis and biological evaluation of sulfonylhydrazone-substituted imidazo[1,2-a]pyridines as novel PI3 kinase p110alpha inhibitors” (Bioorg Med Chem, 2007)
